Results are given in words; binding and its absence hold for the method and conditions named.
T1: prohibitin 1 (PHB1), endogenous in human blood monocytes (human (endogenous in blood monocytes)) (UniProt P35232)
T1 sequence: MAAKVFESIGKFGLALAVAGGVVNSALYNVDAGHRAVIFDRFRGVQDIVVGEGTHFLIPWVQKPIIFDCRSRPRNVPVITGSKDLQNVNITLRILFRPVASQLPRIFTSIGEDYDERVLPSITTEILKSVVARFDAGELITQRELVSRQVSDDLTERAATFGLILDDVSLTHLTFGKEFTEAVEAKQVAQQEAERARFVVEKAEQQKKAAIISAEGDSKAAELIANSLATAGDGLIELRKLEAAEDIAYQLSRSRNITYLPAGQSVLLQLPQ

B1: NW peptide with tryptophan (W) at position 6 replaced by alanine (peptide)
peptide: NWYLPALGTNDW
B2: NW peptide with tryptophan (W) at position 12 replaced by alanine (peptide)
peptide: NWYLPWLGTNDA
B3: NW peptide with leucine (L) at position 4 replaced by alanine (peptide)
peptide: NWYAPWLGTNDW
B4: NW peptide with leucine (L) at position 7 replaced by alanine (peptide)
peptide: NWYLPWAGTNDW
B5: NW peptide with tryptophan (W) at position 2 replaced by alanine (peptide)
peptide: NAYLPWLGTNDW

These binders were tested against T1, prohibitin 1 (PHB1), endogenous in human blood monocytes (human (endogenous in blood monocytes)) (assay: flow cytometry on cells; competition: unlabelled peptides (2.5–20 μg/mL, four concentrations) against biotinylated wild-type NW peptide (0.05 μg/mL) on live blood monocytes; percent inhibition from geometric mean fluorescence intensity; only the binder purified).

Q: With B1 as the binder, how does the binding read?
A: Its binding is “no binding (tested: 20 μg/mL)”.

Q: How did the binding turn out when B2 was run?
A: The binding was “no binding (tested: 20 μg/mL)”.

Q: Which binding does the source give for B3 here?
A: The binding was “no binding”.

Q: B4 was tested. Which binding did it give?
A: The binding was “no binding”.

Q: B5 was tested. Which binding did it give?
A: The binding was “no binding (tested: 20 μg/mL)”.

Reference: publication PMC9029656
